PubChem BioAssay AID493014 (National Center for Advancing Translational Sciences (NCATS), 2011)
This is one part of the list. The main result of the screen is listed elsewhere. These columns were measured beside it and carry no call. Most of these compounds were active or inconclusive in the main read-out, so they are no random draw. Potencies come from curve fits of mixed quality, noted in brackets.

Experiment: qHTS Assay to Find Inhibitors of Chronic Active B-Cell Receptor Signaling
Conditions: ABC-DLBCL IkBa-CBG/CBR reporter, luminescence ratio (green luciferase fused to IkBa over red control in TMD8 lymphoma cells), 4 h
In short: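 TMD8 ABC-DLBCL cells carrying doxycycline-inducible green luciferase fused to IkappaBalpha plus unfused red luciferase were exposed to compounds (up to 46 uM) for 4 hrs at 37C. Activity came from the overlap-corrected green/red luminescence ratio.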

[1] = measured here: CBR red luminescence, cell number
[2] = measured here: IkBa-CBG green luminescence

Row | Structure (SMILES) | AC50 [1] | AC50 [2]
1 | O=C(CSc1nc(=O)n2ccccc2n1)NCc1ccccc1Cl | 11.6 µM [falling, partial curve, poor fit] | –
2 | Cc1ccnc(Sc2ncccc2[N+](=O)[O-])n1 | 20.6 µM [falling, single point] | –
3 | COc1ccccc1-n1cnnc1SCC(=O)Nc1cc(C(C)(C)C)nn1-c1ccccc1 | 28.2 µM [falling, single point] | –
4 | CCOC(=O)C1CCN(c2c(C(=O)c3ccccc3)cnc3ccc(Cl)cc23)CC1 | 17.8 µM [rising, single point] | –
5 | CC1(C)Cc2ccccc2/C(=C/C(=O)c2ccccc2)N1 | 12.6 µM [rising, partial curve] | –
6 | CCS(=O)(=O)Nc1cccc(-c2cc(-c3ccccc3)c3cc(C)ccc3n2)c1 | 20.6 µM [falling, partial curve, poor fit] | –
7 | Cc1csc(NC(=O)CSCC(=O)O)c1-c1nc2ccccc2s1 | 15.8 µM [falling, partial curve, poor fit] | 11.2 µM [rising, partial curve, poor fit]
8 | NS(=O)(=O)c1ccc(NC(=O)c2ccc(F)cc2F)c(NC(=O)c2ccc(F)cc2F)c1 | – | 11.2 µM [falling, partial curve, poor fit]
9 | CC(C)c1ccc(/C=N/NC(=O)c2cccc(Cl)c2)cc1 | 32.6 µM [falling, partial curve, poor fit] | –
10 | Cc1ccc(CN2C(=O)C[C@@H](NC(=O)OCC3c4ccccc4-c4ccccc43)C/C=C\C2c2ccc(C)cc2)cc1 (stereo partly drawn) | 29.1 µM [rising, single point] | 23.1 µM [falling, partial curve, poor fit]
11 | O=C(CSCC(=O)Nc1ccccc1)N/N=C/c1c(O)ccc2ccccc12 | 15.8 µM [falling, single point] | –
12 | C=CCn1c(=O)c(C(=O)Nc2ccccc2S(N)(=O)=O)c(O)c2ccccc21 | 14.1 µM [falling, single point] | –
13 | CCCC(=O)Nc1nc2ccc(S(=O)(=O)N3CCCCC3)cc2s1 | 20.6 µM [rising, single point] | 4.11 µM [falling, partial curve, poor fit]
14 | O=C(CSc1ccc2ccccc2n1)c1ccc2c(c1)OCO2 | 0.92 µM [falling, full curve, poor fit] | –
15 | CCCNC(=O)c1ccc2c(c1)N(Cc1cccc(C)c1)C(=O)c1ccccc1S2 | 7.94 µM [falling, partial curve, poor fit] | –
16 | CC1CC(Nc2ccccc2)c2ccccc2N1C(=O)c1ccco1 (stereo not drawn) | 12.6 µM [falling, partial curve, poor fit] | –
17 | CCC(C)(C)n1nnnc1CN(Cc1cc2cc(OC)ccc2[nH]c1=O)C1CCCC1 | 0.355 µM [rising, full curve, poor fit] | –
18 | C=C(C)C1CC=C(CN2CCN(Cc3ccccc3)CC2)CC1 (stereo not drawn) | 12.6 µM [rising, partial curve, poor fit] | –
19 | C1CSC2(N1)C1CC3CC2CC(C1)C31NCCS1 (stereo not drawn) | 35.5 µM [falling, single point] | –
20 | CCC(=O)c1cc(F)c(N2CCN(S(=O)(=O)c3ccccc3)CC2)cc1C | 2.31 µM [rising, full curve, poor fit] | –
21 | COC(=O)c1ccc2[nH]c3cccc(/C(=C/c4ccccc4)c4ccccc4)c3c2c1 | 12.6 µM [rising, partial curve] | –

Row | Structure (SMILES) | AC50 [1] | AC50 [2]
22 | Cc1cc2nnc(SCC(=O)N3C(C)CCCC3C)n2c(N)n1 (stereo not drawn) | 5.8 µM [falling, single point] | –
23 | COc1ccc(Cl)cc1NC(=O)C(C)OC(=O)Cn1cc(C(F)(F)F)ccc1=O (stereo not drawn) | 4.11 µM [rising, full curve] | –
24 | C/C(=N\NC(=O)c1ccoc1C)c1cccc2ccccc12 | 10 µM [falling, partial curve] | –
25 | Cc1cc(NC(=O)Nc2cccc3ccccc23)no1 | 12.6 µM [falling, single point] | –
26 | Cc1cccc(N(C)S(=O)(=O)c2ccc(-c3cnc(C4CC4)o3)cc2)c1 | 1.78 µM [rising, full curve] | 2 µM [falling, full curve]
27 | COc1ccc(OCC(=O)Nc2nccs2)cc1 | 6.31 µM [falling, partial curve, poor fit] | –
28 | Cn1cc(C(=O)C(=O)NCCc2ccccc2)c2ccccc21 | 35.5 µM [falling, partial curve, poor fit] | –
29 | CC(=O)NCCc1ccc(S(=O)(=O)N2CCN(c3nc(-c4ccccc4)c(C)s3)CC2)cc1 | 0.794 µM [rising, full curve, poor fit] | –
30 | Cc1nc(SCC(=O)c2ccc(F)cc2)c([N+](=O)[O-])[nH]1 | 35.5 µM [falling, single point] | –
31 | CCOCCc1nnc(NC(=O)CCS(=O)(=O)c2ccccc2)s1 | 11.2 µM [falling, partial curve] | –
32 | COc1c(C(=O)Nc2ccc3[nH]c(=O)[nH]c3c2)cc2ccccc2c1Br | 35.5 µM [rising, single point] | –
33 | Cc1ccccc1NC(=S)NCc1ccc2[nH]c3c(c2c1)CCCC3 | 8.2 µM [rising, partial curve] | 10.3 µM [falling, partial curve]
34 | Cc1ccccc1Cn1cc(NC(=O)c2cc(-c3ccco3)on2)cn1 | 5.01 µM [falling, partial curve, poor fit] | –
35 | Cn1c(=O)c2c(SCC(=O)Nc3nccs3)nc(C3CC3)nc2n(C)c1=O | 20 µM [rising, partial curve, poor fit] | –
36 | COc1ccccc1-c1nc(-c2ccc(Br)cc2)no1 | 2.82 µM [falling, full curve, poor fit] | –
37 | CCc1ccc(-c2cnc3ccccc3n2)cc1NC(=O)CNC(=O)c1ccccc1 | 0.562 µM [rising, full curve, poor fit] | –
38 | Cc1ccc(S(=O)(=O)NCCCNS(=O)(=O)c2ccccc2Br)cc1 | 32.6 µM [rising, partial curve, poor fit] | –
39 | Nc1ccc(C(=O)OCCc2ccccc2)cc1 | 29.1 µM [falling, single point] | –
40 | CC(C)(C)NC(=O)c1cccc(NC(=O)c2ccc3c(c2)C(=O)N(C(C)(C)C)C3=O)c1 | 2.82 µM [falling, full curve, poor fit] | –
41 | COc1ccc(/C=C/c2nnc(NC(=O)CSc3ccc(C)cc3)s2)cc1 | 14.1 µM [falling, single point] | –
42 | COc1cc(-c2nc(-c3cccnc3)no2)cc(OC)c1OC | 8.2 µM [rising, partial curve] | –

Row | Structure (SMILES) | AC50 [1] | AC50 [2]
43 | Cc1ccccc1C(=O)Nc1nnc(-c2ccc(F)cc2)o1 | 3.26 µM [falling, partial curve] | –
44 | Cc1noc(NS(=O)(=O)c2ccc(N/C=C/C(=O)c3ccccc3)cc2)c1C | 4.61 µM [rising, single point] | –
45 | NNC(=O)c1cc(Cl)ccc1Cl | 3.26 µM [falling, partial curve, poor fit] | –
46 | CCSc1nnc(NC(=O)C2CC2c2ccccc2)s1 (stereo not drawn) | 6.51 µM [rising, single point] | –
47 | Cc1c(Cl)cccc1NC(=O)c1ccc(-n2ccnc2)nc1 | 10 µM [falling, partial curve] | –
48 | C=CS(=O)(=O)c1sc(Cl)c(N2CCOCC2)c1[N+](=O)[O-] | 20 µM [falling, partial curve, poor fit] | –
49 | O=C(N/N=C/c1ccc(O)cc1)c1csc2ccccc12 | 2.82 µM [falling, partial curve, poor fit] | –
50 | Cc1ccnc(N2CCCC(C(=O)Nc3nnc(C)s3)C2)n1 (stereo not drawn) | 5.62 µM [rising, single point] | –
51 | COc1ccc(N(CCC(=O)O)S(=O)(=O)c2ccc(C)c(C)c2)cc1 | – | 22.4 µM [rising, partial curve, poor fit]
52 | COc1ccc(NS(=O)(=O)c2cn(C)nc2C)cc1 | 12.6 µM [falling, partial curve, poor fit] | –
53 | O=C(NC1=NCCS1)c1ccc(-c2ccc(Cl)cc2)o1 | 14.6 µM [falling, single point] | –
54 | CC1CCCN(c2ccc3nncn3n2)C1 (stereo not drawn) | 35.5 µM [rising, single point] | –
55 | COc1ccc(CN2C(=O)CSC2c2ccccn2)cc1 (stereo not drawn) | 2.82 µM [rising, partial curve, poor fit] | –
56 | CCOc1ccc(NC(=O)c2sc3nc(C)nc(N4CCOCC4)c3c2C)cc1 | 1.41 µM [rising, full curve, poor fit] | –
57 | Oc1cccc(Oc2ncc(C(F)(F)F)cc2Cl)c1 | 22.4 µM [rising, single point] | –
58 | CC(=O)Oc1ccc2nc(/C=C/c3ccc(C=O)cc3)oc(=O)c2c1 | 11.2 µM [falling, partial curve] | –
59 | O=S(=O)(NCCc1ccccc1)c1ccc(F)cc1 | 7.08 µM [rising, full curve, poor fit] | –
60 | Cc1nc2ccccn2c1C(=O)c1ccccc1 | 20.6 µM [rising, single point] | –
61 | O=[N+]([O-])c1ccc(Oc2cccc3cccnc23)c([N+](=O)[O-])c1 | 29.1 µM [rising, single point] | 29.1 µM [falling, single point]
62 | O=C(COC(=O)c1n[nH]c2ccccc12)c1ccc(F)c(F)c1 | 10.3 µM [falling, partial curve, poor fit] | –

Structures from the list above that have bromine, in the order listed:
Row | Structure (SMILES) | AC50 [1] | AC50 [2]
32 | COc1c(C(=O)Nc2ccc3[nH]c(=O)[nH]c3c2)cc2ccccc2c1Br | 35.5 µM [rising, single point] | –
36 | COc1ccccc1-c1nc(-c2ccc(Br)cc2)no1 | 2.82 µM [falling, full curve, poor fit] | –
38 | Cc1ccc(S(=O)(=O)NCCCNS(=O)(=O)c2ccccc2Br)cc1 | 32.6 µM [rising, partial curve, poor fit] | –

2 of the compounds above, with each value named:
C/C(=N\NC(=O)c1ccoc1C)c1cccc2ccccc12
  AC50 [1]: 10 µM [falling, partial curve]
Cc1cc(NC(=O)Nc2cccc3ccccc23)no1
  AC50 [1]: 12.6 µM [falling, single point]
